Source: patent US20260240957 (published 2026)

Experiment: general procedure: Fmoc solid-phase peptide synthesis; Rink Amide MBHA resin
Settings: whole synthesis

Ala^1-Val-Ser-Glu-His^5-Gln-Leu-Leu-His-Asp^10-Lys-Gly-Lys-Ser-Ile^15-Gln-Asp-Leu-Arg-Arg^20-Arg-Glu-Leu-Leu-Glu^25-Lys-Leu-Leu-Aib-Lys^30-Leu-His-Thr-Ala^34-NH2
difficulty met: Gln^16 deletion impurity comprises up to 49% by weight of the crude abaloparatide product
